# Out of some 300,000 compounds screened, about 3,700 (1.2%) were called active. This list was built around the results that the source calls inconclusive (neither active nor inactive); the mix of calls is not that of the screen. Calls follow the shape of the full dose curve; tested in HEK293 cells. Potencies beside an inconclusive call are fits to weak or partial responses and may not hold up.
# Assay: qHTS for Inhibitors of binding or entry into cells for Lassa Virus; also: nearly all actives have a fitted effect of over 50% in size
# Conditions: Lassa virus pseudotype entry inhibition, cell reporter; series mostly up to 37.9 µM
# Potency is read from the fitted curve at half-maximal effect.
row,Structure (SMILES),Potency
1,COc1ccc2oc(C(=O)OCC(=O)N3CCCCC3)c(C)c2c1,"inconclusive: 35.5 µM [inhibitor, single point]"
2,COc1ccc(CNC(=O)c2c[nH]c3ccccc3c2=O)cc1,"inconclusive: 1.26 µM [inhibitor, full curve]"
3,Cc1nn(Cc2ccccc2Cl)c(Cl)c1/C=C/C(=O)OCC(=O)NC(N)=O,inactive
4,COc1ccc(C)cc1Nc1nc(C)nc2sc(C)cc12,"inconclusive: 0.631 µM [inhibitor, full curve, poor fit]"
5,Clc1ccc(COC(Cn2ccnc2)c2ccc(Cl)cc2Cl)cc1 (configuration not stated),inactive
6,COc1ccc(S(=O)(=O)N(CC(=O)NCc2ccccc2)c2ccc(C)cc2)cc1OC,inactive
7,COc1ccc2c(c1OC)C(=O)OC2C1c2cc3c(cc2CCN1C)OCO3 (configuration not stated),inactive
8,CC(C)Cc1nnc(NC(=O)c2ccc([N+](=O)[O-])cc2)s1,inactive
9,O=C(NCCOc1ccc(F)cc1)c1ccccc1SCc1ccccc1,"inconclusive: 31.6 µM [inhibitor, partial curve, poor fit]"
10,COc1ccc2[nH]cc(CCNC(=O)c3ccccc3Cl)c2c1,inactive
11,Cc1oc2cc(O)cc(C)c2c(=O)c1-c1cnn(-c2ccccc2)c1,"inconclusive: 35.5 µM [inhibitor, single point]"
12,O=C(Nc1nc2ccccc2s1)C1=NN(c2ccccc2)C(=O)CC1,inactive
13,Cc1cccc(C)c1OCc1nnc(NC(=O)CSc2ccc(Cl)cc2)s1,inactive
14,CCc1ccc(NCc2cc3cc(OC)c(OC)cc3n(CC(=O)Nc3cc(C)ccc3C)c2=O)cc1,"inconclusive: 3.55 µM [inhibitor, partial curve, poor fit]"
15,CCCCNC(=O)N1c2ccccc2CC1C (configuration not stated),inactive
16,CC1CC(C)CN(S(=O)(=O)N2CCC(C(=O)NCCC3=CCCCC3)CC2)C1 (configuration not stated),inactive
17,CC(C)CNC(=O)c1cc2nc(C3CC3)cc(C(F)(F)F)n2n1,inactive
18,COc1ccc(CNS(=O)(=O)c2ccc(F)cc2Br)cc1,"inconclusive: 3.53 µM [inhibitor, full curve, poor fit]"
19,CO/N=C/c1ccc(N2CCN(C(=O)c3ccc(Cl)cc3Cl)CC2)c([N+](=O)[O-])c1,"inconclusive: 18.3 µM [inhibitor, single point]"
20,COc1ccccc1CC(=O)NCCN1CCCCC1,"inconclusive: 0.794 µM [activator, single point]"
21,CN1CCN(c2ncnc3scc(-c4ccccc4Cl)c23)CC1,inactive
22,CCOc1ccc(C(=O)Nc2ccccc2N2CCOCC2)cc1,inactive
23,O=C(COC(=O)c1ccc[nH]c1=O)NC1CCCCCCC1,inactive
24,CCC(=O)Nc1ccc(NC(=S)NC(=O)/C=C/c2ccccc2)cc1,"inconclusive: 5.01 µM [inhibitor, full curve, poor fit]"

row,Structure (SMILES),Potency
1,CCn1c(CSCc2ccc(Cl)cc2)nnc1SCC(=O)Nc1cccc(C(=O)O)c1,"inconclusive: 35.5 µM [activator, partial curve, poor fit]"
2,CC1=C(C(=O)N2CCN(c3cccc(C)c3C)CC2)C2(CCCCC2)OC1=O,"inconclusive: 3.16 µM [inhibitor, partial curve, poor fit]"
3,c1ccc(C(c2c[nH]c3ccccc23)c2c[nH]c3ccccc23)nc1,inactive
4,Cc1cc(C)c(NC(=O)CCN2C(=O)c3ccccc3S2(=O)=O)c(C)c1,"inconclusive: 22.4 µM [activator, single point]"
5,Cn1ccc(/C=N/N=C2/NC(=O)CS2)n1,"inconclusive: 2.82 µM [activator, full curve, poor fit]"
6,CCCNC(=O)c1ccccc1NC(=O)c1ccccc1N(C)S(=O)(=O)c1ccc(C)cc1,"inconclusive: 14.1 µM [inhibitor, partial curve, poor fit]"
7,COc1ccc(Br)cc1CN(C)CC(=O)Nc1c(Cl)ccc(C)c1Cl,"inconclusive: 1 µM [inhibitor, partial curve, poor fit]"
8,C=Cc1ccc(CN2C(=O)c3ccccc3Sc3ccc(C(=O)OCc4ccco4)cc32)cc1,inactive
9,Cc1ncoc1C(=O)Nc1cccc(Cl)c1,"inconclusive: 0.73 µM [activator, full curve, poor fit]"
10,S=c1[nH]nc(-c2cc(-c3ccccc3)n[nH]2)n1/N=C/C=C/c1ccco1,"inconclusive: 1 µM [inhibitor, full curve, poor fit]"
11,COc1ccc(NS(=O)(=O)c2cccc(C(=O)N3CCN(Cc4ccc5c(c4)OCO5)CC3)c2)cc1,"inconclusive: 35.5 µM [inhibitor, single point]"
12,O=C(Cn1c(=O)nc(-c2ccccc2)c2ccccc21)NCc1ccc(F)cc1,"inconclusive: 8.91 µM [inhibitor, partial curve, poor fit]"
13,COc1ccc(S(=O)(=O)N2CCOCC2)cc1C(=O)Nc1cc(C)on1,inactive
14,Cc1c(Cl)cccc1NC(=S)NNS(=O)(=O)c1ccc([N+](=O)[O-])cc1,inactive
15,NNC(=O)CN1C(c2ccccc2Br)=Nc2ccc(Br)cc2C1c1ccccc1 (configuration not stated),inactive
16,CC(C(=O)Nc1ccccc1-c1ccccc1)N1CCN(C(=O)c2ccccc2)CC1 (configuration not stated),"inconclusive: 7.94 µM [inhibitor, partial curve, poor fit]"
17,COc1ccc(-n2ncc3c2CC(C)(C)CC3NC(=O)c2ccoc2C)cc1 (configuration not stated),inactive
18,O=C(NCCCN1CCOCC1)c1ccc2c(c1)N(Cc1ccccc1F)C(=O)c1ccccc1S2=O (configuration not stated),"inconclusive: 31.6 µM [activator, single point]"
19,O=[N+]([O-])c1ccc(O)c(/C=N/Nc2ccc(Cl)nn2)c1,"inconclusive: 0.794 µM [inhibitor, full curve, poor fit]"
20,Cc1ccc(C(=O)CCC(=O)OCC(=O)N2c3ccccc3NC(=O)C2(C)C)cc1,inactive
21,CCOC(=O)c1ccc(Nc2nc(-c3cccnc3)nc3ccccc23)cc1,"inconclusive: 35.5 µM [inhibitor, single point]"
22,O=C(CCSc1ccc(Cl)cc1)N1CCN(S(=O)(=O)c2ccccc2)CC1,"inconclusive: 35.5 µM [inhibitor, partial curve, poor fit]"
23,CC(NC(=O)c1ccc(Br)s1)c1ccncc1 (configuration not stated),"inconclusive: 35.5 µM [activator, single point]"
24,Cc1ccc(OCC(=O)N2CCCCCCC2)cc1C,inactive

row,Structure (SMILES),Potency
1,CCSc1nsc(NC(=O)Nc2ccccc2F)n1,"inconclusive: 35.5 µM [inhibitor, single point]"
2,Cc1ccccc1-c1noc(-c2cccnc2N(C)Cc2ccc(Cl)cc2)n1,inactive
3,Clc1ccccc1C(c1ccccc1)(c1ccccc1)n1ccnc1,active: 6.51 µM
4,Cc1cccc2cc(C(c3nnnn3Cc3ccc4c(c3)OCO4)N3CCCC3)c(=O)[nH]c12 (configuration not stated),inactive
5,Cc1cccc(Nc2nnc(-c3ccc(N4CCOCC4)c([N+](=O)[O-])c3)c3ccccc23)c1,active: 10 µM
6,CN(C)c1ccc(CNS(=O)(=O)c2ccc3[nH]c4c(c3c2)CCCCC4)cc1,"inconclusive: 5.62 µM [inhibitor, full curve, poor fit]"
7,COC(=O)c1c(C)n(-c2ccc(C)cc2)c2ccc(O)cc12,"inconclusive: 29.1 µM [inhibitor, single point]"
8,CN(C)C=C1C(=O)N(C2CCCCC2)C(=O)N(C2CCCCC2)C1=O,"inconclusive: 35.5 µM [inhibitor, single point]"
9,Cc1nc2ccc(S(=O)(=O)NC(CC(C)C)C(=O)N3CCN(c4ccc(F)cc4)CC3)cc2s1 (configuration not stated),inactive
10,CC1CCN(C(=O)CSc2nnc(N)s2)CC1,inactive
11,Cc1cc(C(=O)NC(C)C2CCCO2)no1 (configuration not stated),"inconclusive: 35.5 µM [activator, single point]"
12,Cc1cc(C)n2ncc(C(=O)NCCc3ccccc3)c2n1,"inconclusive: 1.26 µM [inhibitor, single point]"
13,CCN(CC)CCCNC(=O)c1ccc2c(c1)NC(=O)C(CS(=O)(=O)Cc1cccc(Br)c1)N2 (configuration not stated),inactive
14,Cc1c(C(=O)Nc2ccc(C(C)C)cc2)sc2nc[nH]c(=O)c12,"inconclusive: 1.26 µM [activator, partial curve, poor fit]"
15,c1ccc2[nH]c(NC3=NCCC3)nc2c1,inactive
16,Cc1cc(C)n(-c2nc3ccccc3c(=O)n2OCC#N)n1,"inconclusive: 12.6 µM [inhibitor, single point]"
17,CC(C)CNC(=O)C(=O)N/N=C/c1cccs1,"inconclusive: 14.6 µM [activator, single point]"
18,Cc1ccccc1C(=O)N1CCN(CCc2ccccn2)CC1,inactive
19,CC1CCN(S(=O)(=O)c2ccc3c(c2)CCN3C(=O)Nc2ccc(Br)cc2)CC1,"inconclusive: 5.01 µM [activator, full curve, poor fit]"
20,COC(=O)Nc1ccc(S(=O)(=O)N2CCCC(C(=O)NC3CCCCC3)C2)cc1 (configuration not stated),"inconclusive: 22.4 µM [inhibitor, partial curve, poor fit]"
21,COc1ccccc1CNC(=O)COC(=O)c1cccnc1SCC(=O)NCc1ccccc1OC,inactive
22,Cc1ccc(NC(=O)/C(=C/c2cccc([N+](=O)[O-])c2)NC(=O)C2CCCCC2)c(C)c1,"inconclusive: 13 µM [inhibitor, partial curve, poor fit]"
23,Cc1ccc(-c2nnc(Nc3ccc(Cl)c(Cl)c3)c3ccccc23)cc1S(=O)(=O)NCCO,"inconclusive: 14.1 µM [inhibitor, single point]"
24,CC(C)CNC(=O)C(=O)Nc1ccc(N(C)C)cc1,"inconclusive: 2.91 µM [activator, full curve]"

# Pulled by compound from above, 3 records:
row,Structure (SMILES),Potency
15,c1ccc2[nH]c(NC3=NCCC3)nc2c1,inactive
10,COc1ccc2[nH]cc(CCNC(=O)c3ccccc3Cl)c2c1,inactive
1,COc1ccc2oc(C(=O)OCC(=O)N3CCCCC3)c(C)c2c1,"inconclusive: 35.5 µM [inhibitor, single point]"
